Drawing on paper PMC9197937, this text covers binding for 1 molecule.

The assay has as its target T1, Strep-Pmt1 nascent chain stalled at the triple-proline motif (PPP construct) (S. cerevisiae) (UniProt P33775).
T1 sequence (chain, nascent chain-tRNA (NC-tRNA)): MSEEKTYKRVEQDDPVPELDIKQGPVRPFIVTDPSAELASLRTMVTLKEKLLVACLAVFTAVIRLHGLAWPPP
Description: cryo-EM structure; RNC-RAC sample: purified RNC-RAC supplemented with RAC (1:4); states C1-C4, State C2 at 3.0 Å (Map 3.5), RAC region by local refinement (Map 3.6); both purified.

Results are given in words; binding and its absence hold for the method and conditions named. Some binding calls cover weakened binding; strength is not graded here.

B1: Zuo1 of recombinant RAC (protein, UniProt P32527 1-433)
chain: MFSLPTLTSDITVEVNSSATKTPFVRRPVEPVGKFFLQHAQRTLRNHTWSEFERIEAEKNVKTVDESNVDPDELLFDTELADEDLLTHDARDWKTADLYAAMGLSKLRFRATESQIIKAHRKQVVKYHPDKQSAAGGSLDQDGFFKIIQKAFETLTDSNKRAQYDSCDFVADVPPPKKGTDYDFYEAWGPVFEAEARFSKKTPIPSLGNKDSSKKEVEQFYAFWHRFDSWRTFEFLDEDVPDDSSNRDHKRYIERKNKAARDKKKTADNARLVKLVERAVSEDPRIKMFKEEEKKEKERRKWEREAGARAEAEAKAKAEAEAKAKAESEAKANASAKADKKKAKEAAKAAKKKNKRAIRNSAKEADYFGDADKATTIDEQVGLIVDSLNDEELVSTADKIKANAAGAKEVLKESAKTIVDSGKLPSSLLSYFV
For B1, the binding result is listed as “binds”.
